# Test results published in PubChem BioAssay AID588347 (National Center for Advancing Translational Sciences (NCATS), 2011).
# Protein sequences, listed by entry. Tags and fused reporters are not part of them.
# UniProt Q92830, whole entry, looked up: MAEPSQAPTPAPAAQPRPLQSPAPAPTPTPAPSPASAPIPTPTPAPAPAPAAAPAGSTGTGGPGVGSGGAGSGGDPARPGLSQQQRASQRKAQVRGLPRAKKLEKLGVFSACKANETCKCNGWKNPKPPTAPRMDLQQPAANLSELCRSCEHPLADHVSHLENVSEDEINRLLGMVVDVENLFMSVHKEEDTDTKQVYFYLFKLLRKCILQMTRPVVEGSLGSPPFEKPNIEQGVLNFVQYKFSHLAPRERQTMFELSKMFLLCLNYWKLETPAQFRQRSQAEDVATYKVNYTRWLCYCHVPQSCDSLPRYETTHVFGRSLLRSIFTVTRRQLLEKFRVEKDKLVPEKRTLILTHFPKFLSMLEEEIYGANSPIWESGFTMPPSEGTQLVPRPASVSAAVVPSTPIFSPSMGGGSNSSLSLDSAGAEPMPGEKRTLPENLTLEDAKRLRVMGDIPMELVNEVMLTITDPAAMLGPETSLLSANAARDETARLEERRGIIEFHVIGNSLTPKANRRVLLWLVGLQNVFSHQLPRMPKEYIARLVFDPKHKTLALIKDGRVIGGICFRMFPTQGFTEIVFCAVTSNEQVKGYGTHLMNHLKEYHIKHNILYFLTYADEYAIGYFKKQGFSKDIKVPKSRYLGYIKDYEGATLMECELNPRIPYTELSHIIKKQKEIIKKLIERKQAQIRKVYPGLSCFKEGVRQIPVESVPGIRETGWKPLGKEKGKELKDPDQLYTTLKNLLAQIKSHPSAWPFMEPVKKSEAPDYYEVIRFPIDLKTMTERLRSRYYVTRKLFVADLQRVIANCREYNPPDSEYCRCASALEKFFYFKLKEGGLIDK
# Inconclusive results, whose numbers are uncertain, are shown with a selection of clear calls. Potencies beside an inconclusive call are fits to weak or partial responses and may not hold up. Calls of active or inactive are those of the source. Calls come from the whole dose curve; as a rule, active = well fitted inhibition curve with a large enough effect; inconclusive = small, poorly fitted or top-dose-only effect, or another doubt; inactive = no such curve, though single readings can be large or run the other way.
# Biological target: Histone acetyltransferase KAT2A (Homo sapiens) (UniProt Q92830)
# Test: qHTS Assay for Inhibitors of GCN5L2: Hit confirmation
# Details: GCN5L2 HAT, ThioGlo1 CoA fluorescence, 20 min
# Text: Histone acetyltransferase (HAT) enzymes transfer a […] group from acetyl-coenzyme A to the epsilon-amino group of conserved lysine residues of N-terminal histone tails. Acetylation results in charge neutralization of this positively charged amino acid, decreasing interactions with the […] backbone and making the DNA more accessible for transcription. HATs have been recognized as an emerging drug target for treatment of cancer, diabetes, asthma, chronic obstructive pulmonary disease, cardiac disease, and viral infection. Protein identified with HAT activity include the […] like 2 (GCN5L2, a.ka. Histone acetyltransferase KAT2A) which acetylates histone H3 at Lys9, 14, 18, 13, and to lesser extent histones H4 and H2B. This activates transcription of the gene by modulating chromatin structure and installing the acetyllysine recognition mark for bromodomain-containing coactivator proteins. A quantitative high throughput screen was developed to identify small molecule inhibitors. The assay is based on the principle that it measures formation of reduced CoA with the pro-fluorescent maleimide derivative ThioGlo1 that becomes fluorescent upon reaction with the free thiol of CoA. A large number of artifacts are expected in this primary screen, compounded by the assay format (fluorescent artifacts) and by the high top concentration tested for each substance. […] Yasgar, et al. Compound Management for Quantitative High-Throughput Screening. […] Inglese, et al. Quantitative high-throughput screening: a titration-based approach that efficiently identifies biological activities in large chemical libraries. […]
# To each well of a 1,536w plate, 3ul of GCN5L2 (final concentration 20nM, in 50mM HEPES, 0.1mM EDTA (pH 7.5), 0.01% Tween-20 buffer) are added using a Kalypsys dispenser. […] Plates are read immediately on the ViewLux (PerkinElmer) (Ex340nm/Em540nm) for a 0 min read, incubated for 20 min at room temperature, and read again on the ViewLux with the same settings. The initial read was carried out to identify compounds that are potentially fluorescent.
row,Structure (SMILES),Potency
1,Cc1cc(C(C#N)c2ccc(Cl)cc2)c(Cl)cc1NC(=O)c1cc(I)cc(I)c1O (stereo not drawn),"inconclusive: 4.57 µM [inhibitor, full curve]"
2,O=C(O)CSCC(=O)N(Cc1ccccc1)c1nc(-c2ccccc2)c(-c2ccccc2)s1,active: 22.9 µM
3,O=C(O)CCC(=O)NCCC1=c2ccccc2=N/C1=C\c1c(O)n(Cc2ccc(F)cc2)c(=S)[nH]c1=O,active: 5.13 µM
